Experimental data as given in publication PMC2571106 (BMC Microbiology, 2008).
These are yes or no findings as the source states them, for the method shown.

B1: rSlpA_(210-435) (domain or fragment, UniProt Q05044 240-465)
chain: VTATNDNSVKIVYRTTDGTQVGSNTWVTSTDGTKAGSKVSDKAADQTALEAYINANKPSGYTVTNPNAADATYGNTVYATVSQAATSKVALKVSGTPVTTALTTADANDKVAANDTTANGSSVAGSTVYAAGTKLAQLTTDLTGEKGQVVTLTAIDTDLEDATFTGTTTYYSDLGKAYHYTYTYNKDSAASSNASTQFGSNVTGTLTATLVMGKSTATANGTTWFN
B2: rSlpA_(291-435) (domain or fragment, UniProt Q05044 321-465)
chain: SQAATSKVALKVSGTPVTTALTTADANDKVAANDTTANGSSVAGSTVYAAGTKLAQLTTDLTGEKGQVVTLTAIDTDLEDATFTGTTTYYSDLGKAYHYTYTYNKDSAASSNASTQFGSNVTGTLTATLVMGKSTATANGTTWFN

Columns and labels:
[1] = molecular target: rSlpA_(210-435) (Lactobacillus brevis ATCC 8287) (UniProt Q05044); assay: precipitation after dialysis from GHCl (self-assembly test); affinity purified protein dissolved in 5 M GHCl at 1 mg/ml, dialysed against PBS for two hours at 4°C, centrifuged 16,000 x g 30 min, precipitate checked by SDS-PAGE; both purified
[2] = molecular target: rSlpA_(291-435) (Lactobacillus brevis ATCC 8287) (UniProt Q05044); assay: as above

Binder	binding [1]	binding [2]
B1	no binding (tested: 1 mg/ml)	–
B2	–	no binding (tested: 1 mg/ml)
